{
  "source": "PubChem BioAssay AID540256",
  "about": "(National Center for Advancing Translational Sciences (NCATS), 2011)",
  "note": "The campaign covered roughly 300,000 compounds. About 3,700 (1.2%) were called active. This list was built around the results that the source calls inconclusive (neither active nor inactive); the mix of calls is not that of the screen. The call rests on the fitted dose curve; tested in HEK293 cells. Potencies beside an inconclusive call are fits to weak or partial responses and may not hold up. Potency means the concentration at half of the fitted maximal effect.",
  "data": [
    {"test": "qHTS for Inhibitors of binding or entry into cells for Lassa Virus; further: nearly all actives have a fitted effect of over 50% in size", "settings": "Lassa virus pseudotype entry inhibition, cell reporter; series mostly up to 37.9 µM", "values": [
      {"smiles": "CN1CCN(CCCCOc2ccccc2C=O)CC1", "Potency": "inconclusive: 31.6 µM [inhibitor, single point]"},
      {"smiles": "CCOc1ccccc1-c1cc(C(=O)N/N=C/c2ccc(O)c(OC)c2)c2ccccc2n1", "Potency": "active: 7.08 µM"},
      {"smiles": "O=C(CNC(=O)c1cccs1)NCC(=O)OCc1ccccc1Cl", "Potency": "inactive"},
      {"smiles": "COCc1nc(-c2ccc(-c3ccc(OC)cc3)nc2OC)no1", "Potency": "inactive"},
      {"smiles": "O=C(CCSc1ccccc1)NC1CCCC1", "Potency": "inactive"},
      {"smiles": "CC1Cc2c([nH]c3ccccc23)C2c3ccccc3CN12", "note": "(configuration not stated)", "Potency": "inconclusive: 31.6 µM [inhibitor, single point]"},
      {"smiles": "Cc1nc(NCc2ccc3c(c2)OCO3)c2nnn(Cc3ccccc3)c2n1", "Potency": "inactive"},
      {"smiles": "O=c1[nH]c(NC2CCN(S(=O)(=O)c3ccccc3C(F)(F)F)CC2)nc2c1CCCC2", "Potency": "inconclusive: 7.94 µM [inhibitor, partial curve, poor fit]"},
      {"smiles": "CC(C)Oc1cccc(-c2cc(C(=O)NC(=S)N(C)c3ccccc3C(=O)O)c3ccccc3n2)c1", "Potency": "inconclusive: 29.1 µM [inhibitor, single point]"},
      {"smiles": "CC(C)(CNC(=O)c1ccccc1NS(C)(=O)=O)N1CCCCC1", "Potency": "inconclusive: 4.47 µM [activator, full curve]"},
      {"smiles": "COc1ccc(CNC(=O)C(=O)NCC2CCCN2S(=O)(=O)c2ccccc2)cc1", "note": "(configuration not stated)", "Potency": "inconclusive: 15.8 µM [inhibitor, single point]"},
      {"smiles": "CCOC(=O)c1cccc(COC(=O)c2cccc(-c3nnc(-c4ccccc4)o3)c2)c1", "Potency": "inconclusive: 2.82 µM [inhibitor, full curve, poor fit]"},
      {"smiles": "COc1ccccc1C(=O)Nc1cccc(C(=O)OCc2cc(=O)n3cc(C)sc3n2)c1", "Potency": "inactive"},
      {"smiles": "CCc1nnc(NC(=O)c2cc(S(=O)(=O)N(CC)CC)ccc2Cl)s1", "Potency": "inactive"},
      {"smiles": "Cc1ccc(NC(=O)COC(=O)/C(=C/c2cccs2)c2cccs2)cc1S(=O)(=O)N(C)C", "Potency": "active: 11.2 µM"},
      {"smiles": "Cc1ccc(C(=O)NNC(=O)c2ccco2)cc1", "Potency": "inactive"},
      {"smiles": "COc1ccc(-c2n[nH]c3c2C(c2ccc(OC)c(OC)c2)N(c2ccccc2)C3=O)cc1", "note": "(configuration not stated)", "Potency": "inconclusive: 16.4 µM [inhibitor, single point]"},
      {"smiles": "COc1ccc2oc(=O)c(C(=O)N3CCN(C(=O)c4ccco4)CC3)cc2c1", "Potency": "inconclusive: 1.26 µM [inhibitor, single point]"},
      {"smiles": "CC1=C(c2ccc(C)c(C)c2)S(=O)(=O)NC1=NCc1ccccc1Cl", "Potency": "inconclusive: 35.5 µM [inhibitor, single point]"},
      {"smiles": "COc1cc(/C=N/Nc2ccc(C(F)(F)F)cn2)cc(OC)c1O", "Potency": "inconclusive: 3.55 µM [inhibitor, partial curve, poor fit]"},
      {"smiles": "CCCCC(=O)NC1CC(=O)N(c2ccc3c(c2)OCCO3)C1", "note": "(configuration not stated)", "Potency": "inactive"},
      {"smiles": "Cc1ccc(C)c(NC(=O)CN(C)C(=O)c2cccc(S(=O)(=O)N3CCN(Cc4ccccc4)CC3)c2)c1", "Potency": "inconclusive: 17.8 µM [inhibitor, single point]"},
      {"smiles": "N#Cc1cnc(Nc2nc3ccccc3o2)nc1-c1ccccc1", "Potency": "inconclusive: 25.9 µM [activator, partial curve, poor fit]"},
      {"smiles": "CCCCn1c(=N)n(CC(O)COc2cccc(C)c2)c2ccccc21", "note": "(configuration not stated)", "Potency": "inconclusive: 23.1 µM [inhibitor, partial curve, poor fit]"},
      {"smiles": "CC1CCCN(C(=O)CSc2nnc3n(C4CCCC4)c(=O)c4ccccc4n23)C1", "note": "(configuration not stated)", "Potency": "inconclusive: 29.1 µM [inhibitor, single point]"},
      {"smiles": "COCCn1c(SCc2c(F)cccc2Cl)nc2c1c(=O)[nH]c(=O)n2C", "Potency": "inconclusive: 11.6 µM [inhibitor, partial curve, poor fit]"},
      {"smiles": "O=C(c1cc(S(=O)(=O)N2CCCCC2)ccc1N1CCOCC1)N1CCN(Cc2ccccc2)CC1", "Potency": "inconclusive: 11.2 µM [inhibitor, single point]"},
      {"smiles": "Cc1cc(OCC(=O)Nc2ncn[nH]2)ccc1Cl", "Potency": "inconclusive: 31.6 µM [activator, partial curve, poor fit]"},
      {"smiles": "Cc1cccc(C)c1NC(=O)c1cccc2c1C(=O)N(C1CCCCC1)C2", "Potency": "inconclusive: 31.6 µM [inhibitor, single point]"},
      {"smiles": "O=C(N/N=C(/CC(=O)c1cccs1)C(F)(F)F)c1ccc(O)cc1", "Potency": "inconclusive: 20.6 µM [inhibitor, single point]"},
      {"smiles": "CN(C(=O)C1CCCO1)c1nnc(-c2ccccn2)s1", "note": "(configuration not stated)", "Potency": "inconclusive: 29.1 µM [activator, single point]"},
      {"smiles": "COc1cc(/C(C)=N/NC(=O)CSc2nncn2C)ccc1OCc1ccccc1Cl", "Potency": "inactive"},
      {"smiles": "CCOC(=O)c1cc2c(=O)n3ccccc3nc2n(CCOC)c1=NC(=O)c1c(-c2ccccc2Cl)noc1C", "Potency": "inconclusive: 22.4 µM [activator, single point]"},
      {"smiles": "CCOCCCN1CC(C(=O)NCc2ccc3c(c2)OCO3)CC1=O", "note": "(configuration not stated)", "Potency": "inconclusive: 6.31 µM [activator, partial curve, poor fit]"},
      {"smiles": "CC(=O)c1sc2nc(-c3cccs3)ccc2c1N", "Potency": "inconclusive: 3.26 µM [activator, single point]"},
      {"smiles": "CCc1ccc(/C=C2/C(=O)N(c3ccccc3)C(=S)N2CC(=O)OC)s1", "Potency": "inconclusive: 12.6 µM [inhibitor, single point]"},
      {"smiles": "CC1CCc2nc3sc4c(c3c(N)c2C1)CCCC4", "note": "(configuration not stated)", "Potency": "inactive"},
      {"smiles": "COc1ccccc1CNC(=O)COC(=O)CSc1ccc(Cl)cc1", "Potency": "inconclusive: 11.2 µM [activator, partial curve, poor fit]"},
      {"smiles": "CC(=O)NS(=O)(=O)c1ccc(N=c2ssc3c2-c2cc(C)c(C)cc2NC3(C)C)cc1", "Potency": "inconclusive: 2.24 µM [inhibitor, partial curve, poor fit]"},
      {"smiles": "O=C(NCCc1ccccc1)c1ccc(-n2cnnn2)cc1", "Potency": "inconclusive: 9.2 µM [activator, partial curve, poor fit]"},
      {"smiles": "Cc1cccc(-n2c(SCC(=O)NCc3ccco3)nc3ccccc3c2=O)c1", "Potency": "inactive"},
      {"smiles": "O=C1c2cc([N+](=O)[O-])cc3cc([N+](=O)[O-])cc(c23)C(=O)N1c1ccccn1", "Potency": "inconclusive: 8.91 µM [inhibitor, partial curve, poor fit]"}
    ]}
  ]
}
